Test results: US20260014285A1 (HANGZHOU HEALTHYTIDE BIOTECHNOLOGY CO., LTD., priority 2022, published 2026)
*: point of attachment. DOTA = O=C(O)CN1CCN(CC(=O)O)CCN(CC(=O)*)CCN(CC(=O)O)CC1; NOTA = O=C(O)CN1CCN(CC(=O)O)CCN(CC(=O)*)CC1

What was measured:
[1] = general procedure: Fmoc solid-phase peptide synthesis; 2-CTC Resin; HOBT/HBTU/DIEA; settings: whole synthesis, scale of the general procedure 0.5 mmol
[2] = general procedure: Fmoc solid-phase peptide synthesis; 2-CTC resin; HOBT/HBTU/DIEA; settings: whole synthesis, scale 0.5 mmol

Substance | final purity (method not given) [1] [%] | crude mass [2] [mg] | isolated mass [2] [mg]
{DOTA}-NDVIN-OH | 97.97 | – | –
{NOTA}-DVINF-OH | 98.84 | 427 | 30.52
